Reference: PubChem BioAssay AID493246 (Drosophila RNAi Screening Center, 2011)

Test: 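Identify essential fly genes by loss of cell viability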 (primary screen)
System: Drosophila Kc and S2R+ cells
Reagent: long dsRNA against Drosophila genes
Measured: 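Cell number per well after knock-down, printed as raw plate values; calls were based on per-plate z-scores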
Direction: Kc cell number and S2R+ cell number: higher = more cells remaining
Call rule: 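Counted as a hit if cell number falls by a z-score of at least 3 within its plate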
In all, the deposit lists about 21,000 reagents; this is a random part of those that have a named target and a result. In the full data, 429 (2%) were called active. 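Values are raw and not normalised between plates; calls rest on per-plate z-scores that were not deposited.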 Reagent sequences are not shown. Not given: the amount of reagent, the time to read-out.

{"gene": "CG10713", "DRSC id": "DRSC09786", "Kc cell number, rep 1": 1.35e6, "Kc cell number, rep 2": 1.46e6, "S2R+ cell number, rep 1": 1.27e6, "S2R+ cell number, rep 2": 1.27e6, "activity call": "inactive"}
{"gene": "Rel", "DRSC id": "DRSC16819", "Kc cell number, rep 1": 1.66e6, "Kc cell number, rep 2": 1.79e6, "S2R+ cell number, rep 1": 1.49e6, "S2R+ cell number, rep 2": 1.49e6, "activity call": "inactive"}
{"gene": "NTPase", "DRSC id": "DRSC00761", "Kc cell number, rep 1": 1.25e6, "Kc cell number, rep 2": 1.32e6, "S2R+ cell number, rep 1": 6.34e5, "S2R+ cell number, rep 2": 7.08e5, "activity call": "inactive"}
{"gene": "cry", "DRSC id": "DRSC16928", "Kc cell number, rep 1": 1.33e6, "Kc cell number, rep 2": 1.34e6, "S2R+ cell number, rep 1": 1.14e6, "S2R+ cell number, rep 2": 1.18e6, "activity call": "inactive"}
{"gene": "rt", "DRSC id": "DRSC11391", "Kc cell number, rep 1": 1.42e6, "Kc cell number, rep 2": 1.34e6, "S2R+ cell number, rep 1": 1.38e6, "S2R+ cell number, rep 2": 1.37e6, "activity call": "inactive"}
{"gene": "r-l", "DRSC id": "DRSC17042", "Kc cell number, rep 1": 1.42e6, "Kc cell number, rep 2": 1.61e6, "S2R+ cell number, rep 1": 1.05e6, "S2R+ cell number, rep 2": 1.17e6, "activity call": "inactive"}
{"gene": "EloA", "DRSC id": "DRSC16109", "Kc cell number, rep 1": 1.59e6, "Kc cell number, rep 2": 1.57e6, "S2R+ cell number, rep 1": 1.17e6, "S2R+ cell number, rep 2": 1.20e6, "activity call": "inactive"}
{"gene": "CG13392", "DRSC id": "DRSC02262", "Kc cell number, rep 1": 1.52e6, "Kc cell number, rep 2": 1.60e6, "S2R+ cell number, rep 1": 1.24e6, "S2R+ cell number, rep 2": 1.36e6, "activity call": "inactive"}
{"gene": "Doc1", "DRSC id": "DRSC11146", "Kc cell number, rep 1": 1.44e6, "Kc cell number, rep 2": 1.48e6, "S2R+ cell number, rep 1": 1.29e6, "S2R+ cell number, rep 2": 1.33e6, "activity call": "inactive"}
{"gene": "ng2", "DRSC id": "DRSC18803", "Kc cell number, rep 1": 1.57e6, "Kc cell number, rep 2": 1.55e6, "S2R+ cell number, rep 1": 1.04e6, "S2R+ cell number, rep 2": 1.22e6, "activity call": "inactive"}
{"gene": "CG6805", "DRSC id": "DRSC07011", "Kc cell number, rep 1": 1.43e6, "Kc cell number, rep 2": 1.47e6, "S2R+ cell number, rep 1": 1.18e6, "S2R+ cell number, rep 2": 1.23e6, "activity call": "inactive"}
{"gene": "CG3358", "DRSC id": "DRSC04992", "Kc cell number, rep 1": 1.48e6, "Kc cell number, rep 2": 1.52e6, "S2R+ cell number, rep 1": 1.17e6, "S2R+ cell number, rep 2": 1.27e6, "activity call": "inactive"}

As entered above:
ng2 [DRSC18803], Kc cell number, rep 2 = 1.55e6
Result of rt [DRSC11391] under “Kc cell number, rep 2”: 1.34e6
